Data as given in PubChem BioAssay AID1259405 (NCATS, 2018)

Assay: 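Silenced genes that increase secreted GFP made by CHO cells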 (primary screen)
Cell system: Chinese hamster CHO-K1 ovary cells with stable secreted eGFP expression
Reagents: single siRNA against mouse genes, 0.8 pmol siRNA per well (2 µl of 400 nM stock)
Duration: 3 days
Measurement: 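Percent of the per-plate non-targeting control median for intracellular GFP per well by laser scanning cytometry and for cell viability by ATP luminescence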
Reading the numbers: GFP, % of control: higher = more GFP per well, higher productivity; viability (ATP), % of control: higher = more viable cells (more ATP)
Active means: 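Called active when intracellular GFP, relative to negative control, is at or above 120%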
Shown is an unselected part of about 50,000 reagents. About 4,000 of all reagents (8%) count as active. 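Mouse siRNA library applied to hamster cells; one well for each siRNA.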 Entries without a mark were called inactive. Reagents against one gene are numbered here.

Galp (galanin-like peptide) #1
- GFP, % of control: 98.1
- viability (ATP), % of control: 110

Galp (galanin-like peptide) #2
- GFP, % of control: 84.6
- viability (ATP), % of control: 70.8

Galp (galanin-like peptide) #3
- GFP, % of control: 74.7
- viability (ATP), % of control: 79.8

Aph1a (aph1 homolog A, gamma secretase subunit) #1
- GFP, % of control: 62.7
- viability (ATP), % of control: 64.4

Aph1a (aph1 homolog A, gamma secretase subunit) #2
- GFP, % of control: 51.6
- viability (ATP), % of control: 81.1

Gfm1 (G elongation factor, mitochondrial 1) #1
- GFP, % of control: 47.3
- viability (ATP), % of control: 39.4

Gfm1 (G elongation factor, mitochondrial 1) #2
- GFP, % of control: 108
- viability (ATP), % of control: 60.7

Gfm1 (G elongation factor, mitochondrial 1) #3
- GFP, % of control: 63.3
- viability (ATP), % of control: 65.1

Il18rap (interleukin 18 receptor accessory protein) #1
- GFP, % of control: 66.9
- viability (ATP), % of control: 97.1

Il18rap (interleukin 18 receptor accessory protein) #2
- GFP, % of control: 106
- viability (ATP), % of control: 75.9

Il18rap (interleukin 18 receptor accessory protein) #3
- GFP, % of control: 50.4
- viability (ATP), % of control: 65.4

Adgrd1 (adhesion G protein-coupled receptor D1) #1
- GFP, % of control: 121 (active)
- viability (ATP), % of control: 99

Adgrd1 (adhesion G protein-coupled receptor D1) #2
- GFP, % of control: 112
- viability (ATP), % of control: 64

Adgrd1 (adhesion G protein-coupled receptor D1) #3
- GFP, % of control: 87.3
- viability (ATP), % of control: 112

Eif3a (eukaryotic translation initiation factor 3, subunit A) #1
- GFP, % of control: 76.7
- viability (ATP), % of control: 91.9

Eif3a (eukaryotic translation initiation factor 3, subunit A) #2
- GFP, % of control: 28.3
- viability (ATP), % of control: 11.6

Eif3a (eukaryotic translation initiation factor 3, subunit A) #3
- GFP, % of control: 129 (active)
- viability (ATP), % of control: 84.8

Records listed so far called active, once more:
Adgrd1 (adhesion G protein-coupled receptor D1) #1
- GFP, % of control: 121 (active)
- viability (ATP), % of control: 99

Eif3a (eukaryotic translation initiation factor 3, subunit A) #3
- GFP, % of control: 129 (active)
- viability (ATP), % of control: 84.8
